Results are given in words; binding and its absence hold for the method and conditions named. Some entries that bind do so weakly or less than the wild type.
How the values were obtained:
Pan1 = target: T1, Pan1 (S. cerevisiae, UniProt P32521 1-1480); assay: fluorescence cross-correlation spectroscopy (FCCS); living yeast cells, observation volume in the cytoplasm; one protein tagged with (3)myeGFP/eGFP and the other with 3mCherry in the same strain; apparent (effective) KD; interactions up to ~1 μM detectable
T1 construct: Pan1, S. cerevisiae; also called Pan1-1myeGFP; Pan1-3mCherry; source: chromosomally tagged at the endogenous locus, in the cytoplasm of living S. cerevisiae cells
T1 sequence (looked up): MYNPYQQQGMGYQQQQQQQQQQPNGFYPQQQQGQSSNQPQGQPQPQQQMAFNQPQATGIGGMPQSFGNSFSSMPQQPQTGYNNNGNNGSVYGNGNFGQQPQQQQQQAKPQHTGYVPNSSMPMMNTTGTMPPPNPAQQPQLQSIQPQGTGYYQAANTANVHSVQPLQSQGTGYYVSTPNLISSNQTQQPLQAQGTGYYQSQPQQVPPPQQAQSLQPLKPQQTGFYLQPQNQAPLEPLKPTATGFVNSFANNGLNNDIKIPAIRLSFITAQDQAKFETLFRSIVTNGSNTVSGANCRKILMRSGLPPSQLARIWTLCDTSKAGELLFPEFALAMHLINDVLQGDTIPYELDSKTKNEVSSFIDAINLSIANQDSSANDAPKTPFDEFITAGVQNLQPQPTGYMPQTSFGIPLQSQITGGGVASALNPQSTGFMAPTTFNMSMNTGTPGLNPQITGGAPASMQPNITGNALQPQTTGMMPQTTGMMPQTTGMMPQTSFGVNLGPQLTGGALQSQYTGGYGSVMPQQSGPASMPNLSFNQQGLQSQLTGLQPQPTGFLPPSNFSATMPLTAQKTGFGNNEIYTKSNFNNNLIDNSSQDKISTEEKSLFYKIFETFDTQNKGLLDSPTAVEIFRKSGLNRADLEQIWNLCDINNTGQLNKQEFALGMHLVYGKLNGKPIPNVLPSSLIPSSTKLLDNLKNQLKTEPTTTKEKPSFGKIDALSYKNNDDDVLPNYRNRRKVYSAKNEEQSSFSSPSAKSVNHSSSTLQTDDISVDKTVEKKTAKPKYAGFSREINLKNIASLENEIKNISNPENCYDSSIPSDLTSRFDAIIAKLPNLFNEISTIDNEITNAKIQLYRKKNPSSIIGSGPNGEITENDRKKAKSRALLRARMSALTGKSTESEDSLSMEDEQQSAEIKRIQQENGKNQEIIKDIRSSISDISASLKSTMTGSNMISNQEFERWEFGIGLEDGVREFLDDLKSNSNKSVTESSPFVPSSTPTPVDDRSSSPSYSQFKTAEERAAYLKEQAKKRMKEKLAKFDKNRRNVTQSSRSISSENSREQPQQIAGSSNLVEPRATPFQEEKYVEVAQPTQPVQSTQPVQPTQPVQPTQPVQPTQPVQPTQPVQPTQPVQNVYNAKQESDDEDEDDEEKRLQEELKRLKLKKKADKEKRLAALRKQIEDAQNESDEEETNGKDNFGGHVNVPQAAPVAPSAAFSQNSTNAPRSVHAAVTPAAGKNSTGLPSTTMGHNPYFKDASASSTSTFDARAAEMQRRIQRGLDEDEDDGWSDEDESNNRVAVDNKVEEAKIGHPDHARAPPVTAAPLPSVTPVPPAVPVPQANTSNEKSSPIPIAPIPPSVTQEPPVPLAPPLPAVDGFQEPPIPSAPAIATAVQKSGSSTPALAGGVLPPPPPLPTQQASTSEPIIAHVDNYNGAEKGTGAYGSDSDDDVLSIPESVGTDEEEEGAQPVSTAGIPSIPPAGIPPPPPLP

End3 (S. cerevisiae) = target: T2, End3 (S. cerevisiae) (UniProt P39013); assay: as above
T2 sequence: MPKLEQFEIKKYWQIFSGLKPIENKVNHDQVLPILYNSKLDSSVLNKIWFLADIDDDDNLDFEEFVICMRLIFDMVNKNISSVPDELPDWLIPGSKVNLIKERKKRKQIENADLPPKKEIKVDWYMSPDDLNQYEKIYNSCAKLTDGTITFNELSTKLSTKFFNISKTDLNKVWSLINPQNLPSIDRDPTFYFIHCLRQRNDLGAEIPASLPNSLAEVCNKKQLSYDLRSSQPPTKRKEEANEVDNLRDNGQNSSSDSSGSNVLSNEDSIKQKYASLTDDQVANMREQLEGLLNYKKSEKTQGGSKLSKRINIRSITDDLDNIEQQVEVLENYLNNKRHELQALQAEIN

Sla2 = target: T3, Sla2 (S. cerevisiae, UniProt P33338 1-968); assay: fluorescence cross-correlation spectroscopy (FCCS); self-interaction: living diploid yeast cells with one allele fused to (3)myeGFP and one to (3)mCherry, cytoplasm; apparent (effective) KD, to be taken as the upper limit since complexes of one colour are not seen
T3 construct: Sla2, S. cerevisiae; also called Sla2-3myeGFP; Sla2-3mCherry; source: chromosomally tagged at the endogenous locus, in the cytoplasm of living S. cerevisiae cells
T3 sequence (looked up): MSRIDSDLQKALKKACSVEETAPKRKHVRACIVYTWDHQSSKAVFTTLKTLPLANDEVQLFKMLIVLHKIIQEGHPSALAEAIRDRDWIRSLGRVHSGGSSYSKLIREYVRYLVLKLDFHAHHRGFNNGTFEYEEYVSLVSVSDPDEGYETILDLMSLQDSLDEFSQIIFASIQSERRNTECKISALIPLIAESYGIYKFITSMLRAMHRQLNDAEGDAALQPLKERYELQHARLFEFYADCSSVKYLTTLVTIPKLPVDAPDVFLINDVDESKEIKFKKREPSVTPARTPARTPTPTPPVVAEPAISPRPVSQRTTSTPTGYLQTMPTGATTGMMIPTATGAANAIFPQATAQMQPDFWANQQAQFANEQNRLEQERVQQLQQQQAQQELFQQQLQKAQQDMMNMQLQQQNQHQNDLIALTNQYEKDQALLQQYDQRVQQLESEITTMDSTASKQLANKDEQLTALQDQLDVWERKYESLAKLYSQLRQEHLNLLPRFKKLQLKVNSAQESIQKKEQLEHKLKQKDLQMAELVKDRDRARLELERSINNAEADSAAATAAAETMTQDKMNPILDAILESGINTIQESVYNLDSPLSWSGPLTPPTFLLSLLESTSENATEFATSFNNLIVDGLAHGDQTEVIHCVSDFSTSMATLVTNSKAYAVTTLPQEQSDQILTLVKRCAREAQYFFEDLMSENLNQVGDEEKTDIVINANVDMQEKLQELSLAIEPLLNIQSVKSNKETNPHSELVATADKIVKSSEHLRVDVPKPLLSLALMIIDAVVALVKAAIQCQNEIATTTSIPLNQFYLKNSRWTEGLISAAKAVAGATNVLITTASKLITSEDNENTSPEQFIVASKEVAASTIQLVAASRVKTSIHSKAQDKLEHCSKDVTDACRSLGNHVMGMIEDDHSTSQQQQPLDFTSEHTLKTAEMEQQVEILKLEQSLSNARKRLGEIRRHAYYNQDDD

Measured: binding

B1: Sla2 (protein, UniProt P33338 1-968)
chain: T3 sequence (looked up)
binds: all assays above
